In this test the target is ^35S-Methionine labeled Luciferase. The test is described as follows: GST pull-down of 35S-Met labelled luciferase (FIG. 7A).

No constants are given. Whether binding was seen depends on the method and setting. Where a sequence is shown, tags or fusion partners need not be part of it.

B1: CRN-1 glutathione S-transferase fusion protein GST-CRN-1(21-382) (protein, C. elegans, UniProt Q9N3T2 21-382, looked up, not shown: a dimerising Fc or GST)
chain: NEMKAFFGRTVAIDASMCLYQFLIAVRQDGSQLQSEDGETTSHLMGMLNRTVRMFENGVKPVYVFDGKPPDMKGGELEKRSERRAEAEKALTEAKEKGDVKEAEKFERRLVKVTKQQNDEAKRLLGLMGIPVVEAPCEAEAQCAHLVKAGKVFGTVTEDMDALTFGSTVLLRHFLAPVAKKIPIKEFNLSLALEEMKLSVEEFIDLCILLGCDYCGTIRGVGPKKAVELIRQHKNIETILENIDQNKYPPPEDWPYKRARELFLNPEVTKPEEVELTWKEADVEGVIQFLCGEKNFNEERIRNALAKLKTSRKSGTQGRIDSFFGNSTKVTCVTAATKRKAEEAEKAKKGAKKGGPPKKRAK
Consider B1, for which the binding result is given as “no binding (tested: 5 µg each (GST or GST-fusion protein))”.

For the origin of these results see US20050142568A1.
